For the data set, the target named is T1, ETS1 (Homo sapiens) (UniProt P14921).
T1 sequence (P14921 whole entry, looked up): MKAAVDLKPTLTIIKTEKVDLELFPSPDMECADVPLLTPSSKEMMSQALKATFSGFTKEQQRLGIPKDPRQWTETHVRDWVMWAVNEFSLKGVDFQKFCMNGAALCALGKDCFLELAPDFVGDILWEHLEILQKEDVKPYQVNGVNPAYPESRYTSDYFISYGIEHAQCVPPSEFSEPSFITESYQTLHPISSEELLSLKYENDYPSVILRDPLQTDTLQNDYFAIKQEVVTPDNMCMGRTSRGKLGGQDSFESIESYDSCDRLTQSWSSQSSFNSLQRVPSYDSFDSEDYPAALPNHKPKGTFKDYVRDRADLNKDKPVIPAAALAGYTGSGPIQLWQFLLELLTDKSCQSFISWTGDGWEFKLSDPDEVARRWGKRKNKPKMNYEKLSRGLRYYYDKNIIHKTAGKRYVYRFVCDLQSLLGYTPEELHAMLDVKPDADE
The data set is described as follows: PBM. Particulars: Custom protein-binding microarray; recombinant protein.

The exact form of at least one protein or probe is not confirmed. The direction of at least one scale is not stated here.

On to “TGTCGGGTAAGGGAATGTAGATCACGTGAATGAAAAGTCTTGATTCGCTTGACGCTGCTG (double strand) [seq09_wt0]”, for which the binding signal came out at 8.22 log signal. As to “TCCGGCTACCAGCTCCACCCACTTCAGGCCTTGTAGGTCTTGATTCGCTTGACGCTGCTG (double strand) [seq05_wt0]”, the binding signal is 8.36 log signal. Regarding “TACTGACTTATATATGCGAATGCACATGAATAGACCGTCTTGATTCGCTTGACGCTGCTG (double strand) [seq12_wt0]”, the binding signal turned out to be 8.15 log signal. Consider “GTGTATAGGATCCCATCCAACACACGTGTTAAAATGGTCTTGATTCGCTTGACGCTGCTG (double strand) [seq10_wt0]”, for which the binding signal came to 8.35 log signal. For “CAGCATAGGACTTCTTCCCTGAAGCAATTGATAACCGTCTTGATTCGCTTGACGCTGCTG (double strand) [seq06_wt0]”, the binding signal came to 8.39 log signal.

With “CTGGGACTTGACCCAACTCTGCCACGTGGGTCGTTTGTCTTGATTCGCTTGACGCTGCTG (double strand) [seq07_wt0]”, the binding signal was 8.2 log signal.

Consider “CACAATTTTTACAGTAATGTAGCACGCGTAACTCCTGTCTTGATTCGCTTGACGCTGCTG (double strand) [seq11_wt0]”, for which the binding signal came to 8.15 log signal. The value for “TAAAGGGAAGACGGTTGTGGTAGTTCCGGGTATTAAGTCTTGATTCGCTTGACGCTGCTG (double strand) [seq03_wt0]” was 8.52 log signal; that for “GATTAATTTCTGCCCTTATTCGCACGTGCCATAACAGTCTTGATTCGCTTGACGCTGCTG (double strand) [seq08_wt0]” was 8.22 log signal.

The values above are taken from paper PMC6602471.
